# Data as given in patent publication US20110060037A1, “USE OF NPY Y5 RECEPTOR ANTAGONISTS FOR THE PREVENTION OF PSYCHO-STIMULANT AND OPIOID ABUSE” (priority 2008, published 2011).
# For at least one compound, name, drawing or mass did not settle the structure.
# Experiments:
# Format in all cases: in vivo
# Y5-KO and WT mice [1] = experiment: Cocaine-induced conditioned place preference in Y5-KO and WT mice; details: for reinstatement as percent of corresponding saline group: FIG. 6C
# C57Bl/6 mice = experiment: Cocaine-induced conditioned place preference (CPP)
# Excerpt: The CPP apparatus consisted of eight parallel set-ups, each consisting of two separate compartments measuring 19×19×19 cm. The walls extended upwards with clear Plexiglas plates to a total height of 43 cm, having the function of preventing the mice from jumping out, and at the same time allowing light to enter. The two compartments differed in visual as well as tactile cues. In one compartment, the walls and floor were painted white, and the floor was smooth, whereas in the other compartment, the walls were black, and the floor provided texture by insertion of a grey Lego plate. […] The movements of the animals were measured with the video-tracking program EthoVision (Noldus, Netherlands).
# The CPP procedure consisted of the following consecutive phases: Habituation (2 days), conditioning (8 days), post-conditioning test (1 day), extinction (3 days), reinstatement test (1 day). […] On the second day (i.e., the pre-conditioning test), the time spent in each of the two compartments (black or white) was recorded. This determined the preferred compartment of each mouse. […]
# Post-conditioning test (day 11): The test was conducted on the day after the last conditioning session. Mice were allowed free access to both compartments for 20 minutes during which the amount of time spent in each compartment was recorded as described above for the pre-conditioning test. […]
# Y5-KO and WT mice [2] = experiment: Cocaine-induced hyperactivity in Y5-KO and WT mice; details: cocaine 10 mg/kg; P=0.046; FIG. 8A
# NMRI mice = experiment: Cocaine-induced hyperactivity; details: cocaine 10 mg/kg; vehicle p.o. pre-treated mice; total 30 min observation period
# Excerpt: The apparatus for measuring locomotor hyperactivity consisted of 16 activity Plexiglas boxes (37×21×17 cm). Eight dual photocells placed throughout the length of each box, detected movement of the animals. A plate was placed on top of the box in order to keep the mice from jumping out during the sessions. Sawdust was placed in a thin layer on the floor of the box. All activity boxes were connected to an interface (SG 502, Med. Associates Inc., East Fairfield, Vt., USA), measuring each beam-break. A computer and activity software (Ellegaard Systems, DK) were used to record the results from each activity box.
# In all activity experiments an i.p. injection of either vehicle or drug was administered 3-7 minutes before testing. The animal was then placed in an activity box and the activity was measured for 30 minutes. […]
# Conditioned place preference data were analysed using repeated measure one-way ANOVA between days within each group on all four groups of both experiments. […] Post-conditioning test and reinstatement presented as percent of its own saline group were analysed with a one-way ANOVA followed by post-hoc LSD t-tests. Total crossings were analysed with a one-way ANOVA followed by post-hoc LSD t-tests. Data presented as 5 minutes intervals was analysed using repeated measures ANOVA with treatment as between subjects factor followed by LSD post-hoc t-test. […]
# Y5-KO and WT mice [3] = experiment: Acute self-administration of cocaine in Y5-KO and WT mice; details: cocaine 0.01-0.1 mg/kg/infusion, one-way ANOVA P=0.530
smiles,measurement,setting,value
COC(=O)[C@H]1[C@@H](OC(=O)c2ccccc2)C[C@@H]2CC[C@H]1N2C [cocaine],reinstatement as percent of corresponding saline group,"Y5-KO and WT mice [1]; WT mice, P=0.006",showed significant reinstatement
same,place preference (post-conditioning vs. pre-conditioning test),"Y5-KO and WT mice [1]; WT mice, cocaine 10 mg/kg i.p.",displayed place preference
same,reinstatement as percent of corresponding saline group,"Y5-KO and WT mice [1]; Y5-KO mice, P=0.288",not present
same,place preference (post-conditioning vs. pre-conditioning test),C57Bl/6 mice; cocaine 10 mg/kg i.p. during conditioning preceded by vehicle p.o.,displayed significant place preference
same,reinstatement of place preference,"C57Bl/6 mice; re-administration of cocaine 5 mg/kg, vehicle p.o.",resulted in reinstatement of place preference
same,"cocaine-induced hyperactivity, Y5-KO vs WT",Y5-KO and WT mice [2],significantly lower in Y5-KO as compared to WT mice
same,hyperactivity vs. saline i.p.,NMRI mice,acutely induced hyperactivity
same,cocaine self-administration,Y5-KO and WT mice [3],did not self-administer cocaine significantly
